Construct, isoform or probe ends are uncertain for at least one entry. Weaker means in comparison with the reference protein, sequence or condition of that experiment.
Biological target: PC4 W89A (His-tagged) (human) (UniProt P53999)
Assay: EMSA
Conditions: complexes less stable than wt (smeared); EMSA: 50 mM HEPES pH 8, 1 mM DTT, 100 mM NaCl, 0.01% BSA, 2% glycerol; 20 min on ice then 10 min at 25 C; native 8% PAGE, 0.5x TBE, 4 C; recombinant protein; protein details: N-terminal 6xHis; label: 5'-32P; single-stranded DNA

Sequence	binding result
CCCTAACCCTAACCCTAACCCTAACCCTAA [telomeric C-rich (CCCTAA)5]	binds more weakly
GGACTCTAGCGTGGATCCTTAAGCTAGAAT [unrelated oligonucleotide]	binds more weakly
TTACGGTTACGGTTACGGTTACGGTTACGG [mutant telomeric G-rich (TTACGG)5]	binds more weakly
TTAGGGTTAGGGTTAGGGTTAGGGTTAGGG [telomeric G-rich (TTAGGG)5]	binds more weakly
